Data published in patent US20190284243A1, “BINDING PEPTIDES” (University of Copenhagen, priority 2016, published 2019).
Results are given in words; binding and its absence hold for the method and conditions named. Some results given as binding are weak or reduced against the parent protein; the word gives no strength.

By UniProt entry, the sequences of proteins in these tests, tags left out. Residues count along the entry.
UniProt P22301, residues 19-178: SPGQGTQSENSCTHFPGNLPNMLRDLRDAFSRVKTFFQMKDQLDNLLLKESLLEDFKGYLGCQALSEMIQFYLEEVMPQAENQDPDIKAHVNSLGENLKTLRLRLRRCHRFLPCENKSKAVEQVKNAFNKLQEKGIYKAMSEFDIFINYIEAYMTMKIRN
UniProt P60568, residues 21-153: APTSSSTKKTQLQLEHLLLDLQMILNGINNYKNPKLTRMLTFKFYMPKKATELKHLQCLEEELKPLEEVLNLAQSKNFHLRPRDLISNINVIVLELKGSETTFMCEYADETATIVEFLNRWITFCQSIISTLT
UniProt P05231, residues 30-212: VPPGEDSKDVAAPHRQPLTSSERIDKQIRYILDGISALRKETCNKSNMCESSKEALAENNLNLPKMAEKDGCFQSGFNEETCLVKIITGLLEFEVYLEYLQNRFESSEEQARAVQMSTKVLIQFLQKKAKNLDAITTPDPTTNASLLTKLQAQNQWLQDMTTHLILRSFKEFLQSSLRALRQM

Tests used:
[1] = target: Enhanced Green Fluorescent Protein [GFP: P42212]; assay: Table 1 grade; binding test not described
[2] = target: Enhanced Green Fluorescent Protein [GFP: P42212]; assay: β-body beads incubated with E. coli lysate
[3] = target: Enhanced Green Fluorescent Protein [GFP: P42212]; assay: fluorescence microscopy of two bead types incubated with eGFP
[4] = target: Enhanced Green Fluorescent Protein [GFP: P42212]; assay: β-body beads incubated with E. coli lysate, EGFP 150 µM or 500 nM
[5] = target: Enhanced Green Fluorescent Protein [GFP: P42212]; assay: fluorescence microscopy of two bead types incubated with 60 nM GFP
Interleukin 10 [6] = target: Interleukin 10 (UniProt P22301); assay: Table 1 grade; context Bead
Interleukin 10 [7] = target: Interleukin 10 (UniProt P22301); assay: Table 1 grade; context RoxNH
Interleukin 2 [8] = target: Interleukin 2 (UniProt P60568); assay: Table 1 grade; context RoxNH
Interleukin 2 [9] = target: Interleukin 2 (UniProt P60568); assay: sandwich assay on PEGA beads
Interleukin 2 [10] = target: Interleukin 2 (UniProt P60568); assay: sandwich assay on PEGA beads, 50 nM IL2, 100 nM peptide D, ROX fluorescence
Interleukin 2 [11] = target: Interleukin 2 (UniProt P60568); assay: Table 1 grade; context Bead
Interleukin 6 [12] = target: Interleukin 6 (UniProt P05231); assay: Table 1 grade; context RoxNH
Interleukin 6 [13] = target: Interleukin 6 (UniProt P05231); assay: sandwich assay on PEGA beads, 20 nM IL6, 20 min
Interleukin 6 [14] = target: Interleukin 6 (UniProt P05231); assay: sandwich assay on PEGA beads, 20 nM IL6, 100 nM peptide F, ROX fluorescence
Interleukin 6 [15] = target: Interleukin 6 (UniProt P05231); assay: Table 1 grade; context Bead
[16] = target: T1, β-body (1) … (SEQ ID NO: 57); assay: fluorescent (1) on beads modified with (1), fluorescence microscopy
T1 sequence (peptide, with a fluorescent probe (1-F*) or on beads, by assay): TYTYTYPGLTRTHT

[17] = target: T2, β-body (2) … (SEQ ID NO: 58); assay: fluorescent (1) on beads modified with (2), fluorescence microscopy
T2 sequence (peptide, with a fluorescent probe (2-F*) or on beads, by assay): TTYTYPGDTFTI

[18] = target: T1, β-body (1) … (SEQ ID NO: 57); assay: fluorescent (2) on beads modified with (1), fluorescence microscopy
[19] = target: T2, β-body (2) … (SEQ ID NO: 58); assay: fluorescent (2) on beads modified with (2), fluorescence microscopy

TETKTVTITRPKMTWTFTHTVTG (designed binder) [β-body SEQ ID NO: 1 (…)]
binding [1]: binds | binding [2]: binds | binding [3]: binds | binding [4]: binds | binding [5]: binds

ATNTLTMTWPGRTNTDTFTW (designed binder) [β-body SEQ ID NO: 20 (…)]
binding (Interleukin 10 [6]): binds

TKTRTYTIPGERYTDTWA (designed binder) [β-body SEQ ID NO: 21 (…)]
binding (Interleukin 10 [7]): binds

NTVTNTMTRPGVTETVTQTD (designed binder, attached to PEGA1900 bead via hydroxymethylbenzamide (HMBA) linker (Example 3)) [Ligand 3: … (SEQ ID NO: 15) on PEGA1900 resin beads]
binding (Interleukin 2 [8]): binds | binding (Interleukin 2 [9]): binds | binding (Interleukin 2 [10]): binds

TRTLTYTEPGITQTKTEA (designed binder, linked to the fluorophore RhodamineX (Example 3)) [Ligand 4: … (SEQ ID NO: 14) linked to the fluorophore RhodamineX]
binding (Interleukin 2 [11]): binds | binding (Interleukin 2 [9]): binds | binding (Interleukin 2 [10]): binds

HTWTDTLTRPGYTVTHTLTL (designed binder, attached to PEGA1900 bead via hydroxymethylbenzamide (HMBA) linker (Example 3)) [Ligand 5: … (SEQ ID NO: 17) linked to PEGA1900-beads]
binding (Interleukin 6 [12]): binds | binding (Interleukin 6 [13]): binds | binding (Interleukin 6 [14]): binds

TMTDTDTYPGFTDTLTHA (designed binder, linked to the fluorophore RhodamineX (Example 3)) [Ligand 6: … (SEQ ID NO: 16) linked to the fluorophore RhodamineX]
binding (Interleukin 6 [15]): binds | binding (Interleukin 6 [13]): binds | binding (Interleukin 6 [14]): binds

TYTYTYPGLTRTHT (designed binder, with a fluorescent probe (1-F*) or on beads, by assay) [β-body (1) … (SEQ ID NO: 57)]
binding [16]: binds | binding [17]: binds

TTYTYPGDTFTI (designed binder, with a fluorescent probe (2-F*) or on beads, by assay) [β-body (2) … (SEQ ID NO: 58)]
binding [18]: binds | binding [19]: binds
